# According to PubChem BioAssay AID485353 (National Center for Advancing Translational Sciences (NCATS), 2010):
# In all, about 330,000 compounds went through this assay and about 610 (0.18%) were called active. Inconclusive means that the source gave no clear call. Such entries were picked first, then a sample of the others. Calls come from the whole dose curve. Potencies of inconclusive entries are doubtful fits and often do not repeat.
# Experiment: qHTS of Yeast-based Assay for SARS-CoV PLP; note: nearly all actives have a fitted effect of over 55% in size; for activity, positive = growth rescue: 0% is about no effect
# Details: S. cerevisiae expressing SARS-CoV PLpro; Potency: growth rescue; activity, positive = growth rescue: at 32.9 µM (top of the series)
# Potency is the fitted concentration of half-maximal effect.
SMILES,Potency,"activity, positive = growth rescue"
CNC(=O)CC12CC3CC(CC(C3)C1)C2,"inconclusive: 22.4 µM [activator, partial curve]",
CC1CCN(C(=O)CCl)CC1,"inconclusive: 11.2 µM [activator, partial curve]",
COc1cc2c(cc1OC)[C@@H](NC(=O)COc1ccccc1)[C@H](OCc1ccccc1)C2,"inconclusive: 0.316 µM [activator, partial curve, poor fit]",
COC(=O)c1ccccc1NC(=S)N(Cc1ccc2c(c1)OCO2)Cc1cc2cc(OC)ccc2[nH]c1=O,"inconclusive: 3.98 µM [activator, single point]",
CN(CCC1CCOCC1)C(=O)CC1C(=O)NCCN1Cc1ccccc1F (configuration not stated),"inconclusive: 17.8 µM [activator, single point]",
CCOC(=O)C(=CNc1cc(C)ccn1)C(=O)OCC,"inconclusive: 20 µM [activator, single point]",
O=C(NCc1ccc2c(c1)OCO2)C(C(=O)c1ccccc1)n1cc(Cl)ccc1=O (configuration not stated),,inactive: 13.4%
Cc1nnc(SCC2=C(C(=O)O)N3C(=O)C(NC(=O)Cn4ncc(Cl)c4C)C3SC2)s1 (configuration not stated),,inactive: -3.94%
O=[N+]([O-])c1ccc(S(=O)(=O)CC(CN2CCCCC2)N2CCCCC2)cc1 (configuration not stated),,inactive: -0.24%
COc1ccc(C(=O)Nc2ccccc2C(=O)NCCN2CCOCC2)cc1,"inconclusive: 8.91 µM [activator, partial curve]",
O=C(Nc1cc(C(F)(F)F)ccc1N1CCOCC1)c1ccc(Cl)nc1,"inconclusive: 2.82 µM [activator, single point]",
CC1CCN(C(=O)C2CCCN(c3ncnc4c3nc3n4CCCCC3)C2)CC1 (configuration not stated),"inconclusive: 20 µM [activator, single point]",
CC(Sc1nnc(N)s1)C(=O)NC1CCCCC1C (configuration not stated),,inactive: 5.92%
Cc1c(C=O)c2ccccc2n1Cc1ccc([N+](=O)[O-])cc1,"inconclusive: 20 µM [activator, single point]",
CCc1cccc2c3c([nH]c12)C(CC)(CC(=O)O)OCC3 (configuration not stated),active: 20 µM,
COCCn1c(SCCCc2ccccc2)nc2c1c(=O)[nH]c(=O)n2C,"inconclusive: 22.4 µM [activator, single point]",
N#Cc1cccc(NC(=O)CCc2ccc(S(=O)(=O)N3CCOCC3)cc2)c1,,inactive: 2.13%
O=C(NC(=S)NNC(=O)c1cnccn1)c1ccc(F)cc1,"inconclusive: 2 µM [activator, full curve]",
Fc1ccccc1OCCCCCN1CCCC1,active: 2.51 µM,
CC1CCCCC1NC(=O)c1ccc(S(=O)(=O)NCc2ccco2)cc1 (configuration not stated),,inactive: -3.79%
CC(C)n1cnnc1SCC(=O)Nc1ccc(N2CCCCC2)cc1,"inconclusive: 3.98 µM [activator, single point]",
CC(C)(C)Sc1ccc2nc3c(n2c1)CCCC3,"inconclusive: 20 µM [activator, single point]",
Cc1cc(SCC(=O)c2ccc(O)c(O)c2)n2nc(C)c(-c3ccccc3)c2n1,"inconclusive: 11.2 µM [activator, partial curve]",
CCOC(=O)c1c(NC(=O)C2C3CCC(O3)C2C(=O)O)sc(C)c1-c1ccc(C)cc1 (configuration not stated),"inconclusive: 10 µM [activator, partial curve]",

SMILES,Potency,"activity, positive = growth rescue"
COc1cc(OC)cc(C(=O)NCC(=O)OCC(=O)N2c3ccccc3NC(=O)C2(C)C)c1,,inactive: -4.34%
Cc1nc2cc(O)ccc2n1C,"inconclusive: 3.98 µM [activator, single point]",
O=C(O)CC(NC(=O)c1ccccc1NC(=O)c1ccccc1)C(=O)O (configuration not stated),"inconclusive: 2.51 µM [activator, single point]",
C[C@]12CC[C@@H]3c4ccc(O)cc4CC[C@H]3[C@@H]1C[C@@H](O)[C@@H]2O[C@@H]1O[C@H](C(=O)O)[C@@H](O)[C@H](O)[C@H]1O,"inconclusive: 3.55 µM [activator, single point]",
Cc1c(O)nc(SCC(=O)Nc2ccc3c4c(cccc24)CC3)n(-c2ccccc2)c1=O,"inconclusive: 20 µM [activator, single point]",
CC(=O)c1c(C)nc2sc3c(=N)n(N)cnc3c2c1-c1ccc(Cl)cc1,,inactive: -10.5%
CC1CN(Cc2ccc(C#N)cc2Cl)CC(C)O1 (configuration not stated),"inconclusive: 4.47 µM [activator, single point]",
Cc1ccc2c(nc3s/c(=C/c4cccs4)c(=O)n32)c1C,,inactive: 8.77%
O=C(CCS(=O)(=O)c1ccc(Br)s1)N1CCc2ccccc21,,inactive: 3.56%
COP(=O)(OC)C(Nc1ccc(C)cc1)c1ccc([N+](=O)[O-])cc1 (configuration not stated),,inactive: 11.1%
NC(=O)C1CCN(c2ccnc3cc(Cl)ccc23)CC1,,inactive: 0.234%
Cc1ccccc1S(=O)Cc1ccc(C(=O)NCCN2CCOCC2)o1 (configuration not stated),"inconclusive: 3.98 µM [activator, single point]",
COc1ccc(CN2CCn3ncc(C(=O)Nc4ccccc4)c3C2=O)cc1,,inactive: 0.319%
Cc1c(C(=O)N2CCN(S(=O)(=O)c3ccc(F)cc3)CC2)oc2ccccc12,"inconclusive: 3.55 µM [activator, single point]",
CNC(=O)c1[nH]cnc1C(=O)Nc1ccccc1C,"inconclusive: 2 µM [activator, full curve, poor fit]",
O=C(CSc1ncnc2ccccc12)NCc1ccco1,"inconclusive: 20 µM [activator, single point]",
CCOC(=O)NC(=O)CSc1nc(-c2ccc(C)c(C)c2)cn1-c1ccccc1,,inactive: -33.6%
CCOc1ccccc1NC(=O)COc1coc(CN2CCc3ccccc32)cc1=O,,inactive: -3.31%
COc1ccc(N(CC(=O)NCc2cccc(OC)c2)S(=O)(=O)c2c(C)noc2C)cc1,"inconclusive: 3.98 µM [activator, single point]",
Cc1cccc(NC(=S)NC(=O)/C=C/c2ccco2)c1,,inactive: -1.27%
COC(=O)c1ccsc1NC(=O)CCc1ccccc1,,inactive: -9.94%
NOCC(=O)O,"inconclusive: 3.98 µM [activator, single point]",
CCCCN1CC(=O)N2[C@H]3c4ccc(OC)cc4OC[C@@H]3[C@H](c3ccccc3)[C@]2(C)C1=O,"inconclusive: 3.98 µM [activator, single point]",
O=C(NC1CCCC1)c1ccc(COc2ccccc2Br)o1,"inconclusive: 20 µM [activator, single point]",

SMILES,Potency,"activity, positive = growth rescue"
Cc1nc(SCC(=O)c2ccccc2)c(C#N)c(-c2ccco2)c1C(=O)NCc1ccco1,"inconclusive: 10 µM [activator, single point]",
Cc1ccccc1S(=O)(=O)N1[C@@H](c2ccc(Cl)cc2)C(C(=O)O)=CC[C@H]1c1ccc(Cl)cc1,"inconclusive: 3.16 µM [activator, single point]",
CCCNC(=O)c1ccc2c(=O)c(O)c(-c3ccc(OC)cc3)[nH]c2c1,"inconclusive: 11.2 µM [activator, partial curve]",
CCCCCC(=O)N1CCN(c2ccc(C(C)=O)cc2F)CC1,,inactive: -24.5%
NNC(=O)c1nc[nH]c1C(=O)Nc1ccccn1,active: 14.1 µM,
O=C(NCc1ccco1)c1ccc(S(=O)(=O)c2cccc(S(=O)(=O)N3CCOCC3)c2)cc1,"inconclusive: 2.51 µM [activator, full curve]",
O=C(c1ccncc1)N1CCCC(N2CCN(c3ccc(F)cc3)CC2)C1 (configuration not stated),"inconclusive: 3.55 µM [activator, single point]",
COCCCN1C(=O)c2ccc(C(=O)NCc3ccccn3)cc2C1=O,"inconclusive: 20 µM [activator, single point]",
CCC(C)(C)n1nnnc1C(c1ccccc1OC)N1CCSCC1 (configuration not stated),"inconclusive: 3.16 µM [activator, single point]",
CCC(OC(=O)C(NC(=O)c1ccccc1)c1ccccc1)C(=O)Nc1cc(C)on1 (configuration not stated),active: 22.4 µM,
COc1ccccc1NC(=S)NC(=O)C1CC1,"inconclusive: 12.6 µM [activator, partial curve]",
COc1ccccc1NC(=O)Nc1nnc(Cc2ccc(F)cc2)s1,"inconclusive: 15.8 µM [activator, single point]",
CCOC(=O)C(C(=O)OCC)=C1OC(=O)c2ccccc21,"inconclusive: 17.8 µM [activator, single point]",
CCNC(=O)NC(=O)CSc1nc2ccccc2n1CCOC,"inconclusive: 4.47 µM [activator, single point]",
Nc1nc(NCC2CCCO2)nc(NCC2CCCO2)c1[N+](=O)[O-] (configuration not stated),"inconclusive: 2.82 µM [activator, single point]",
C=CCn1c(C(O)c2ccccc2)nc2ccccc21 (configuration not stated),"inconclusive: 3.16 µM [activator, single point]",
Cc1ccc(Nc2cc(C)nc3nc(C)nn23)cc1,"inconclusive: 4.47 µM [activator, single point]",
CC1CCCCC1NC(=S)NC(=O)c1ccccc1Cl (configuration not stated),"inconclusive: 4.47 µM [activator, single point]",
CC(=O)c1ccc(NC(=S)NC(=O)Cc2ccc(Cl)cc2)cc1,,inactive: 0.876%
CC(C)(C)c1ccc(/C=C/C(=O)Nc2ccncc2)cc1,"inconclusive: 1.26 µM [activator, partial curve]",
CCOc1ccccc1-c1nc(CN2CCN(C(=O)c3ccco3)CC2)c(C)o1,,inactive: 2.55%
O=C1CC(N2CCC(c3nc4ccccc4o3)CC2)C(=O)N1c1ccc(Cl)c(C(F)(F)F)c1 (configuration not stated),"inconclusive: 3.98 µM [activator, single point]",
COc1ccc(CNC(=S)NCc2ccc(Cl)cc2)cc1OC,,inactive: -4.8%
COc1ccc(CCNC(=O)C(=O)NCC2OCCN2S(=O)(=O)c2ccccc2)cc1OC (configuration not stated),active: 11.2 µM,

# Fetched one by one from the list above:
SMILES,Potency,"activity, positive = growth rescue"
O=C(NC1CCCC1)c1ccc(COc2ccccc2Br)o1,"inconclusive: 20 µM [activator, single point]",
COc1ccc(N(CC(=O)NCc2cccc(OC)c2)S(=O)(=O)c2c(C)noc2C)cc1,"inconclusive: 3.98 µM [activator, single point]",
O=C1CC(N2CCC(c3nc4ccccc4o3)CC2)C(=O)N1c1ccc(Cl)c(C(F)(F)F)c1 (configuration not stated),"inconclusive: 3.98 µM [activator, single point]",
NC(=O)C1CCN(c2ccnc3cc(Cl)ccc23)CC1,,inactive: 0.234%
